These are yes or no findings as the source states them, for the method shown.
Tests used:
Assay in all cases: SEC; both purified
GroEL1 sybody number 1 = target: GroEL1 sybody number 1
GroEL2 sybody number 7 = target: GroEL2 sybody number 7
GroEL2 sybody number 8 = target: GroEL2 sybody number 8
GroEL2 sybody number 9 = target: GroEL2 sybody number 9
GroEL2 sybody number 10 = target: GroEL2 sybody number 10
GroEL2 sybody number 11 = target: GroEL2 sybody number 11
GroEL2 sybody number 16 = target: GroEL2 sybody number 16
GroEL2 sybody number 19 = target: GroEL2 sybody number 19
GroEL2 sybody number 22 = target: GroEL2 sybody number 22
GroEL2 sybody number 27 = target: GroEL2 sybody number 27
GroEL2 sybody number 28 = target: GroEL2 sybody number 28
GroEL1 sybody number 5 = target: GroEL1 sybody number 5
GroEL2 sybody number 31 = target: GroEL2 sybody number 31
GroEL2 sybody number 32 = target: GroEL2 sybody number 32
GroEL2 sybody number 33 = target: GroEL2 sybody number 33
GroEL1 sybody number 9 = target: GroEL1 sybody number 9
GroEL1 sybody number 12 = target: GroEL1 sybody number 12
GroEL1 sybody number 18 = target: GroEL1 sybody number 18
GroEL1 sybody number 31 = target: GroEL1 sybody number 31
GroEL2 sybody number 1 = target: GroEL2 sybody number 1
GroEL2 sybody number 2 = target: GroEL2 sybody number 2
GroEL2 sybody number 3 = target: GroEL2 sybody number 3

B1: GroEL1 sybody number 1 (VHH)
VHH: QVQLVESGGGLVQAGGSLRLSCAASGFPVEQRQMYWYRQAPGKEREWVAAIQSYGKRTKYADSVKGRFTISRDNAKNTVYLQMNSLKPEDTAVYYCVVYVGGGYKGQGTQVTVSA
With B1 the binding (GroEL1 sybody number 1) was “no binding”.

B2: GroEL2 sybody number 7 (VHH)
VHH: QVQLVESGGGLVQAGGSLRLSCAASGFPVNDAWMYWYRQAPGKEREWVAAIMSMGFGTWYADSVKGRFTISRDNAKNTVYLQMNSLKPEDTAVYYCNVKDRGKEHFSYDYWGQGTQVTVSA
In the case of B2, the binding (GroEL2 sybody number 7) is reported as “no binding”.

B3: GroEL2 sybody number 8 (VHH)
VHH: QVQLVESGGGLVQAGGSLRLSCAASGFPVYMSWMYWYRQAPGKEREWVAAIMSEGAGTWYADSVKGRFTISRDNAKNTVYLQMNSLKPEDTAVYYCNVKDTGSFHAQYDYWGQGTQVTVSA
B3 was tested, and the binding (GroEL2 sybody number 8) was “no binding”.

B4: GroEL2 sybody number 9 (VHH)
VHH: QVQLVESGGGLVQAGGSLRLSCAASGFPVYQSWMYWYRQAPGKEREWVAAIMSDGSGTWYADSVKGRFTISRDNAKNTVYLQMNSLKPEDTAVYYCNVKDFGHSRSRYDYWGQGTQVTVSA
With B4 the binding (GroEL2 sybody number 9) was “no binding”.

B5: GroEL2 sybody number 10 (VHH)
VHH: QVQLVESGGGLVQAGGSLRLSCAASGFPVKHWYMHWYRQAPGKEREWVAAIQSTGSYTAYADSVKGRFTISRDNAKNTVYLQMNSLKPEDTAVYYCNVKEYGFYHASYDYWGQGTQVTVSA
B5 was tested, and the binding (GroEL2 sybody number 10) was “no binding”.

B6: GroEL2 sybody number 11 (VHH)
VHH: QVQLVESGGGLVQAGGSLRLSCAASGFPVDSAYMWWYRQAPGKEREWVAAIESNGEYTFYADSVKGRFTISRDNAKNTVYLQMNSLKPEDTAVYYCNVKDTGAHHSYYDYWGQGTQVTVSA
With B6 the binding (GroEL2 sybody number 11) was “no binding”.

B7: GroEL2 sybody number 16 (VHH)
VHH: QVQLVESGGGLVQAGGSLRLSCAASGFPVSSSTMTWYRQAPGKEREWVAAIESWGAYTWYADSVKGRFTISRDNAKNTVYLQMNSLKPEDTAVYYCNVKDYDGVADVIYDYWGQGTQVTVSA
B7 was tested, and the binding (GroEL2 sybody number 16) was “no binding”.

B8: GroEL2 sybody number 19 (VHH)
VHH: QVQLVESGGGLVQAGGSLRLSCAASGFPVEWLEMAWYRQAPGKEREWVAAIYSYGMETEYADSVKGRFTISRDNAKNTVYLQMNSLKPEDTAVYYCNVKDGGHAAWWYDYWGQGTQVTVSA
With B8 the binding (GroEL2 sybody number 19) was “no binding”.

B9: GroEL2 sybody number 22 (VHH)
VHH: QVQLVESGGGLVQAGGSLRLSCAASGFPVYHSWMYWYRQAPGKEREWVAAIMSDGHGTWYADSVKGRFTISRDNAKNTVYLQMNSLKPEDTAVYYCNVKDTGSSTTIYDYWGQGTQVTVSA
B9 was tested, and the binding (GroEL2 sybody number 22) was “no binding”.

B10: GroEL2 sybody number 27 (VHH)
VHH: QVQLVESGGGLVQAGGSLRLSCAASGFPVWKAYMWWYRQAPGKEREWVAAIESNGAYTFYADSVKGRFTISRDNAKNTVYLQMNSLKPEDTAVYYCNVKDTGSDSENYDYWGQGTQVTVSA
For B10, the binding (GroEL2 sybody number 27) was “no binding”.

B11: GroEL2 sybody number 28 (VHH)
VHH: QVQLVESGGGLVQAGGSLRLSCAASGFPVDAYWMYWYRQAPGKEREWVAAIMSSGHGTWYADSVKGRFTISRDNAKNTVYLQMNSLKPEDTAVYSCNVKDKGAQAAWYDYWGQGTQVTVSA
For B11, the binding (GroEL2 sybody number 28) was “no binding”.

B12: GroEL1 sybody number 5 (VHH)
VHH: QVQLVESGGGLVQAGGSLRLSCAASGFPVEHKQMRWYRQAPGKEREWVAAIESSGQYTIYADSVKGRFTISRDNAKNTVYLQMNSLKPEDTAVYYCFVGVGAGYYGQGTQVTVSA
With B12 the binding (GroEL1 sybody number 5) was “no binding”.

B13: GroEL2 sybody number 31 (VHH)
VHH: QVQLVESGGGLVQAGGSLRLSCAASGFPVWMEWMYWYRQAPGKEREWVAAIMSEGDGTWYADSVKGRFTISRDNAKNTVYLQMNSLKPEDTAVYYCNVKDFGYNNNYYDYWGQGTQVTVSA
B13 was tested, and the binding (GroEL2 sybody number 31) was “no binding”.

B14: GroEL2 sybody number 32 (VHH)
VHH: QVQLVESGGGLVQAGGSLRLSCAASGFPVVSQFMEWHRQAPGKEREWVAAIDSTGYSTFYADSVKGRFTISRDNAKNTVYLQMNSLKPEDTAVYYCNVKDAGEGQEQYDYWGQGTQVTVSA
In the case of B14, the binding (GroEL2 sybody number 32) is reported as “no binding”.

B15: GroEL2 sybody number 33 (VHH)
VHH: QVQLVESGGGLVQAGGSLRLSCAASGFPVYQHWMYWYRQAPGKEREWVAAIMSQGAGTWYADSVRGRFTISRDNAKNTVYLQMNSLKPEDTAVYYCNVKDLGKAEYNYDYWGQGTQVTVSA
In the case of B15, the binding (GroEL2 sybody number 33) is reported as “no binding”.

B16: GroEL1 sybody number 9 (VHH)
VHH: QVQLVESGGGLVQAGGSLRLSCAASGLPVWQQGMTWYRQAPGKEREWVAAIDSVGAQTYYADSVKGRFTISRDNAKNTVYLQMNSLKPEDTAVYYCAVNVGARYIGQGTQVTVSA
With B16 the binding (GroEL1 sybody number 9) was “no binding”.

B17: GroEL1 sybody number 12 (VHH)
VHH: QVQLVESGGGLVQAGGSLRLSCAASGFPVTQAWMEWYRQAPGKEREWVAAIFSHGGGTFYADSVKGRFTISRDNAKNTVYLQMNSLKPEDTAVYYCNVKDTGERDNWYDYWGQGTQVTVSA
B17 was tested, and the binding (GroEL1 sybody number 12) was “no binding”.

B18: GroEL1 sybody number 18 (VHH)
VHH: QVQLVESGGGLVQAGGSLRLSCAASGFPVKTKHMYWYRQAPGKEREWVAAITSIGMITAYADSVKGRFTISRDNAKNTVYLQMNSLKPEDTAVYYCNVKDWGTNRQAYDYWGQGTQVTVSA
With B18 the binding (GroEL1 sybody number 18) was “no binding”.

B19: GroEL1 sybody number 31 (VHH)
VHH: QVQLVESGGGSVQAGGSLRLSCAASGTIYKIYYLGWFRQAPGKEREGVAALNTFSGGTYYADSVKGRFTVSLDNAKNTVYLQMNSLKPEDTALYYCAAAYDMEGYAWPLYWWHYEYWGQGTQVTVSA
In the case of B19, the binding (GroEL1 sybody number 31) is reported as “no binding”.

B20: GroEL2 sybody number 1 (VHH)
VHH: QVQLVESGGGLVQAGGSLRLSCAASGFPVAITYMHWYRQAPGKEREWVAAISSTGKTTWYADSVKGRFTISRDNAKNTVYLQMNSLKPEDTAVYYCLVEVGHYYKGQGTQVTVSA
In the case of B20, the binding (GroEL2 sybody number 1) is reported as “no binding”.

B21: GroEL2 sybody number 2 (VHH)
VHH: QVQLVESGGGLVQAGGSLRLSCAASGFPVSSSTMTWYRQAPGKEREWVAAIDSVGNETYYADSVKGRFTISRDNAKNTVYLQMNSLKPEDTAVYYCAVFVGSYYGQGTQVTVSA
With B21 the binding (GroEL2 sybody number 2) was “no binding”.

B22: GroEL2 sybody number 3 (VHH)
VHH: QVQLVESGGGLVQAGGSLRLSCAASGFPVAYWEMVWYRQAPGKEREWVAAIRSTGWKTVYADSVKGRFTISRDNAKNTVYLQMNSLKPEDTAVYYCTAVYVGVHYKGQGTQVTVSA
For B22, the binding (GroEL2 sybody number 3) was “no binding”.
